Measurements from the supplement of paper PMC12823440, “Inhibitors supercharge kinase turnover through native proteolytic circuits” (Nature, 2025).
Some of the results follow. The calls rarely recur for the same compound in another form.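 In K562 cells expressing nanoluciferase-fused kinases, luminescence was recorded at 4 h intervals between 2 and 18 h, normalized as percent of control with DMSO at 100% and a positive control at 0%. A significant (2 sigma) signal drop marks a time point as decreased. The authors' rule for a hit is not shown and takes in more than the number of time points.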

Sequences of proteins named here, by UniProt entry; tags and fusion partners are left off. A change or cut given only in a name is not applied to a line headed by its entry.
UniProt P31749: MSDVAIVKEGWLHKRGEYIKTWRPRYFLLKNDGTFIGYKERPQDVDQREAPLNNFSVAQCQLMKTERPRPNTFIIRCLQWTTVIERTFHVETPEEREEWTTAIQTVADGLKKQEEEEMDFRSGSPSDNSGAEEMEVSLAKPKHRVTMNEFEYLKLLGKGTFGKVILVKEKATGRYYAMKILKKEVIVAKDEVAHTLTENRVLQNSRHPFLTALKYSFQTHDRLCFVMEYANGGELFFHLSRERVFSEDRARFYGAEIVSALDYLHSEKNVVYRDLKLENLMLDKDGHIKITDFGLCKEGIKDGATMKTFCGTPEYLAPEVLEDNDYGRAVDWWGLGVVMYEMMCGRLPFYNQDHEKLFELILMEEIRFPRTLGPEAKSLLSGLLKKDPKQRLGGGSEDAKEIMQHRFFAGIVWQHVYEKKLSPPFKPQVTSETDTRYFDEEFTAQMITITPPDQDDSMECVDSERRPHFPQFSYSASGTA
UniProt P10398: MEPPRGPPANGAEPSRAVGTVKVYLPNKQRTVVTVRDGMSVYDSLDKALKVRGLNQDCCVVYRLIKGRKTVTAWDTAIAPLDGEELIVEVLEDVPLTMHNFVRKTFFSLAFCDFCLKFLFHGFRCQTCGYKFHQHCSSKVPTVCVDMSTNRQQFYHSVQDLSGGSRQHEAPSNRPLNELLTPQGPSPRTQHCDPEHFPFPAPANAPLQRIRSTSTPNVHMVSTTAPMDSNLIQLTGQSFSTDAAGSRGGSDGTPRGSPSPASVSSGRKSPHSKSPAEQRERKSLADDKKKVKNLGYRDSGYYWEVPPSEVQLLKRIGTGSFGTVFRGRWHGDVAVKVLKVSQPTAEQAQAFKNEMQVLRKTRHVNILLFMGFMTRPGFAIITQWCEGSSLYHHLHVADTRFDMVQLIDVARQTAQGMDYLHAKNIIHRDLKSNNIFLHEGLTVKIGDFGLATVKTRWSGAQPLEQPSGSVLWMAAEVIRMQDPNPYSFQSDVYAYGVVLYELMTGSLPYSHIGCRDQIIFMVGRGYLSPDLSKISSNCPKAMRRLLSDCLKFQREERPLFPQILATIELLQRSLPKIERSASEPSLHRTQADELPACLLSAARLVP
UniProt Q96GD4, whole entry: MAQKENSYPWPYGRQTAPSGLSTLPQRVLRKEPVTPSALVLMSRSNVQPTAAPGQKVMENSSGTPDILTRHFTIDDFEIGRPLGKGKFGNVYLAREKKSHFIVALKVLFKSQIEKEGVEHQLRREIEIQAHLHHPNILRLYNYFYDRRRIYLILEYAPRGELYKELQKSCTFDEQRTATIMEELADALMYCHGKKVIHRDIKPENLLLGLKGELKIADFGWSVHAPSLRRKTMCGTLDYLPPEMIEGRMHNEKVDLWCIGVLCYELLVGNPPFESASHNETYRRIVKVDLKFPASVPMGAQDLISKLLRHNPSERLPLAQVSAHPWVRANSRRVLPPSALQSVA
UniProt Q9UQB9: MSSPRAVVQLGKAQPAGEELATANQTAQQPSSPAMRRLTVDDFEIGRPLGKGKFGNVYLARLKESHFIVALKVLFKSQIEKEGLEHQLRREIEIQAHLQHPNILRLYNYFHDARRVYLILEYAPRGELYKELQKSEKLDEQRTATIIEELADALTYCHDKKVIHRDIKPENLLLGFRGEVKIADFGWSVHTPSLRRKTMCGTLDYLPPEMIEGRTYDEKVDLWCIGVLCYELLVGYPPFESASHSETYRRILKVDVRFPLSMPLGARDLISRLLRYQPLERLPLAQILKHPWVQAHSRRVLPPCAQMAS
UniProt P51451: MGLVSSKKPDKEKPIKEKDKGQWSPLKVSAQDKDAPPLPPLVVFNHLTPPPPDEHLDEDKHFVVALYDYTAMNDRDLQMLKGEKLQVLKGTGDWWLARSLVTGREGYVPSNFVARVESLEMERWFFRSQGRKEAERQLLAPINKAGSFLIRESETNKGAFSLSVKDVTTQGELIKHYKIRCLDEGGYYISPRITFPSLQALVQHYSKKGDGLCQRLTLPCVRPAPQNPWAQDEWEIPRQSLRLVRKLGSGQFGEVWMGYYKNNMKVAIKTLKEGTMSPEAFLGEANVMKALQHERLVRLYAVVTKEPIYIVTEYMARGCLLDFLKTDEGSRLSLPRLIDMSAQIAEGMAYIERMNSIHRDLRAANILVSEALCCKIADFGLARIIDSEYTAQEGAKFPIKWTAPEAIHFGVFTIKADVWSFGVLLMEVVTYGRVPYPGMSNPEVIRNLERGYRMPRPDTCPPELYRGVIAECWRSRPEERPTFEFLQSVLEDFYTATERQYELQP
UniProt P51813: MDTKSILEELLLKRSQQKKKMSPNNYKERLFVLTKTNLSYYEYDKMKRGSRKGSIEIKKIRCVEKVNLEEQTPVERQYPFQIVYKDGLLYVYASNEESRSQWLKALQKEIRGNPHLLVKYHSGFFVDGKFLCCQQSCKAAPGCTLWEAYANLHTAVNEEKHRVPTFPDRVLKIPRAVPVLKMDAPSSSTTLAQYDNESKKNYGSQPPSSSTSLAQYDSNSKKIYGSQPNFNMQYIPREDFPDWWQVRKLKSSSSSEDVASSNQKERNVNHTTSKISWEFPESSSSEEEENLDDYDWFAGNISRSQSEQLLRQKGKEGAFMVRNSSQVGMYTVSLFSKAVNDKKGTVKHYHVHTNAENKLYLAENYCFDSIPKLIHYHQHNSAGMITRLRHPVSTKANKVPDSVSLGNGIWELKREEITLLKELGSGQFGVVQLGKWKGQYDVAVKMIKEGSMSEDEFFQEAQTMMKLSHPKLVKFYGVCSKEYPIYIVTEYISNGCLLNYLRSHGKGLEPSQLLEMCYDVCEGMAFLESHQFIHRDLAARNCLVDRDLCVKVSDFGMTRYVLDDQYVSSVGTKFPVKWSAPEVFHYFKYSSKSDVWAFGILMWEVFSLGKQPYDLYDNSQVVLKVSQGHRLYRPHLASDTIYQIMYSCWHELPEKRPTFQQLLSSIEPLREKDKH
UniProt P15056, whole entry, looked up: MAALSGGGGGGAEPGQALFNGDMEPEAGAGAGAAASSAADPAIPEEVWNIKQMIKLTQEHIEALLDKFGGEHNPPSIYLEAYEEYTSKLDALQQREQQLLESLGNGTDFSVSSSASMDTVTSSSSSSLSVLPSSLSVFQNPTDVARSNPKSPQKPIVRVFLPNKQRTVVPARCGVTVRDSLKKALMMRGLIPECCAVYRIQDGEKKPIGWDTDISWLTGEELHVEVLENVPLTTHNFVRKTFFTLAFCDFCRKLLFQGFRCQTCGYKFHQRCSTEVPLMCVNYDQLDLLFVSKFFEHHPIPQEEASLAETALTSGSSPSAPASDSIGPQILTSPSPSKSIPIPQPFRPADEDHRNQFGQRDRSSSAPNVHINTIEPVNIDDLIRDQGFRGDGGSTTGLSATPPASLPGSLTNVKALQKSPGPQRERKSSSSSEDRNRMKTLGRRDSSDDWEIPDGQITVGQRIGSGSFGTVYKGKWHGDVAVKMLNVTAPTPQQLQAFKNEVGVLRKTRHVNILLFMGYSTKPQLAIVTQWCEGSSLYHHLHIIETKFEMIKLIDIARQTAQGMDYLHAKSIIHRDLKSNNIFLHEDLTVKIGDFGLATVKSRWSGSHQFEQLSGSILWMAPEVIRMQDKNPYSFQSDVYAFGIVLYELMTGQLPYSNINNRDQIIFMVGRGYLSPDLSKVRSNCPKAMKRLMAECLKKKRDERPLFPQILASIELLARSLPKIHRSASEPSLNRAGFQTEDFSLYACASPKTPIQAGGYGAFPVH
UniProt Q06187: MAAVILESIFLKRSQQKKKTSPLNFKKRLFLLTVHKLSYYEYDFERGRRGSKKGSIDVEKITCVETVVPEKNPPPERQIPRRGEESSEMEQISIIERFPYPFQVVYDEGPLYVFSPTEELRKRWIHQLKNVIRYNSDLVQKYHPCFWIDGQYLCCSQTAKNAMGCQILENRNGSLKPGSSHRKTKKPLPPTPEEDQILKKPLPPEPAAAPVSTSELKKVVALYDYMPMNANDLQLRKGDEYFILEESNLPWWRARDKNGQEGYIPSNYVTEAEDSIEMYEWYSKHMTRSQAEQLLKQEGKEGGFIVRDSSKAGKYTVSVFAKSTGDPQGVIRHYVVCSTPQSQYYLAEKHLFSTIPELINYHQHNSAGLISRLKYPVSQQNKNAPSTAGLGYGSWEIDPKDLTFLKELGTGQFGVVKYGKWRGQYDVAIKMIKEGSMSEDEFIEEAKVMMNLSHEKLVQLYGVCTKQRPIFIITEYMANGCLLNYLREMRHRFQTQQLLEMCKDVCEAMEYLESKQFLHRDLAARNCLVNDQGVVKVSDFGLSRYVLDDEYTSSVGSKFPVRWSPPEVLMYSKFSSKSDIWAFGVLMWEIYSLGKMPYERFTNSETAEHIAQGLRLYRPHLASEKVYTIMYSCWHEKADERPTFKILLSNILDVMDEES
UniProt Q9UQM7, whole entry: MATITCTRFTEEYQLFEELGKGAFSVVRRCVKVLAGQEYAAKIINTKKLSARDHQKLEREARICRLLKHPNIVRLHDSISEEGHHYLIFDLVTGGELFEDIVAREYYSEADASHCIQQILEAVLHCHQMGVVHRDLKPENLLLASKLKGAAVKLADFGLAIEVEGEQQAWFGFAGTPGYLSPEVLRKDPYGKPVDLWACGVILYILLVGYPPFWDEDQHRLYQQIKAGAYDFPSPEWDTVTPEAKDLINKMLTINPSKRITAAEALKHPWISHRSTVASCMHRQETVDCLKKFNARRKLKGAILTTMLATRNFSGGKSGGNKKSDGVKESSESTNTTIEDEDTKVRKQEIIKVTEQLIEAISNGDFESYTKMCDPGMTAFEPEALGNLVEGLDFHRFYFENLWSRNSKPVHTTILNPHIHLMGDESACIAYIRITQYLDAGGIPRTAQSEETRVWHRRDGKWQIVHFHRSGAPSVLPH
UniProt Q13555: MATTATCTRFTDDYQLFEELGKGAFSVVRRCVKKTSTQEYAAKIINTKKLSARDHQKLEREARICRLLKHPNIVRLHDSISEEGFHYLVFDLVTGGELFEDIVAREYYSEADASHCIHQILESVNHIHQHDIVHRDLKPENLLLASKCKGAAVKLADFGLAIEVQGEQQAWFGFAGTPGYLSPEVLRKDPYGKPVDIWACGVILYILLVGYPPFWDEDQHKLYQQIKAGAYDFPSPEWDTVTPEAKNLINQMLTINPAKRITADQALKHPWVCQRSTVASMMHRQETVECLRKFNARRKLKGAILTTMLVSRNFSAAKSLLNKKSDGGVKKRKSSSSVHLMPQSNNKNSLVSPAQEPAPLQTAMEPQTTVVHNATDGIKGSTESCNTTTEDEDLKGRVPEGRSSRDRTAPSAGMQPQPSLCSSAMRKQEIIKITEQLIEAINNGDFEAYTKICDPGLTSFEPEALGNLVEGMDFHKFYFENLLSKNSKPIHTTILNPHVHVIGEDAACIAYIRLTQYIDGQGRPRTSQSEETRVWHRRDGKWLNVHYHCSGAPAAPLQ
UniProt Q15131: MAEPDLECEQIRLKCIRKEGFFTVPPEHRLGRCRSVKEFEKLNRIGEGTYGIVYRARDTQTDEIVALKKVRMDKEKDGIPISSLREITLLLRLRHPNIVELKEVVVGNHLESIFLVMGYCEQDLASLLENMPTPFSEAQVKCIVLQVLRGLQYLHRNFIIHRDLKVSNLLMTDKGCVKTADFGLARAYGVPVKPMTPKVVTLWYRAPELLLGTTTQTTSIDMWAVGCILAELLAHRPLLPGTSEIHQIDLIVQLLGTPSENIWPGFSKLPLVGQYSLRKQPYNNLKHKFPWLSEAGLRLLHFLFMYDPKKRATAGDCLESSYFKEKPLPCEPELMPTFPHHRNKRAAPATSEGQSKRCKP
UniProt Q00526: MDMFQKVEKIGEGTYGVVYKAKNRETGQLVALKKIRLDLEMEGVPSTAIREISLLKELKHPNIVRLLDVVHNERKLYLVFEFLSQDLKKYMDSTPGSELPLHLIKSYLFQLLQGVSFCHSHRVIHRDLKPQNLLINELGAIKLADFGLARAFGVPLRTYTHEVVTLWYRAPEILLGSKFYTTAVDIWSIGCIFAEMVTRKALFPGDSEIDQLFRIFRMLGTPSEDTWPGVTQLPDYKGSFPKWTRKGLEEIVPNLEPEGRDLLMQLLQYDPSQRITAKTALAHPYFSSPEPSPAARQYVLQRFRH
UniProt Q00534, whole entry: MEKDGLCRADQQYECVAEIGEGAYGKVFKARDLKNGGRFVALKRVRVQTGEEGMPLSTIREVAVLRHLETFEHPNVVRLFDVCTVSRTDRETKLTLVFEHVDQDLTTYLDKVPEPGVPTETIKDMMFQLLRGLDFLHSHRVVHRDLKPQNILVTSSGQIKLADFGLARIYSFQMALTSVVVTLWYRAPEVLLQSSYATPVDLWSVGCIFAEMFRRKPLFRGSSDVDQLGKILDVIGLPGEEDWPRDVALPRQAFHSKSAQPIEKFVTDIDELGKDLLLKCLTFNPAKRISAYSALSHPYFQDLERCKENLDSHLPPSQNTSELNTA

Tests used:
Experiment in all cases: kinase-Nluc reporter destabilization hit call (1 = scored as downregulated) (binary); higher = compound decreases kinase abundance
Conditions in all cases: K562; 2-18 h
ABL1 = ABL1 (UniProt P00519)
AKT1 = AKT1 (UniProt P31749)
ALK = ALK (UniProt Q9UM73)
ARAF = ARAF (UniProt P10398)
AURKA = AURKA (UniProt O14965)
AURKB = AURKB (UniProt Q96GD4)
AURKC = AURKC (UniProt Q9UQB9)
BLK = BLK (UniProt P51451)
BMX = BMX (UniProt P51813)
BRAF = BRAF (UniProt P15056)
BRAF_V600E = test system: BRAF_V600E
BTK = BTK (UniProt Q06187)
CAMK2A = CAMK2A (UniProt Q9UQM7)
CAMK2G = CAMK2G (UniProt Q13555)
CDK10 = CDK10 (UniProt Q15131)
CDK2 = CDK2 (UniProt P24941)
CDK3 = CDK3 (UniProt Q00526)
CDK4 = CDK4 (UniProt P11802)
CDK5 = CDK5 (UniProt Q00535)
CDK6 = CDK6 (UniProt Q00534)

Measured: kinase-Nluc reporter destabilization hit call

Brc1ccc(CSc2nc3ccccc3o2)cc1 [BMP signaling agonist sb4] (10 µM)
inactive: ABL1 = 0 | AKT1 = 0 | ALK 0 | ARAF 0 | AURKA 0 | AURKB 0 | AURKC 0 | BLK 0 | BMX 0 | BRAF 0 | BRAF_V600E 0 | BTK 0 | CAMK2A 0 | CAMK2G 0 | CDK10 = 0 | CDK2 = 0 | CDK3 = 0 | CDK4 = 0 | CDK5 = 0 | CDK6 = 0

CO[C@H]1C[C@@H]2CC[C@@H](C)[C@@](O)(O2)C(=O)C(=O)N2CCCC[C@H]2C(=O)O[C@H]([C@H](C)C[C@@H]2CC[C@@H](OCCO)[C@H](OC)C2)CC(=O)[C@H](C)/C=C(\C)[C@@H](O)[C@@H](OC)C(=O)[C@H](C)C[C@H](C)/C=C/C=C/C=C/1C [Everolimus] (10 µM)
inactive: ABL1 = 0 | AKT1 = 0 | ALK 0 | ARAF 0 | AURKA 0 | AURKB 0 | AURKC 0 | BLK 0 | BMX 0 | BRAF 0 | BRAF_V600E 0 | BTK 0 | CAMK2A 0 | CAMK2G 0 | CDK10 = 0 | CDK2 = 0 | CDK3 = 0 | CDK4 = 0 | CDK5 = 0 | CDK6 = 0

CC(C)n1ncnc1-c1cn2c(n1)-c1ccc(O[C@@H](C)C(N)=O)cc1OCC2 (10 µM)
inactive: ABL1 = 0 | AKT1 = 0 | ALK 0 | ARAF 0 | AURKA 0 | AURKB 0 | AURKC 0 | BLK 0 | BMX 0 | BRAF 0 | BRAF_V600E 0 | BTK 0 | CAMK2A 0 | CAMK2G 0 | CDK10 = 0 | CDK2 = 0 | CDK3 = 0 | CDK4 = 0 | CDK5 = 0 | CDK6 = 0

NC(=O)c1ccc(N(C(N)=O)c2c(F)cccc2F)nc1-c1ccc(F)cc1F (10 µM)
inactive: ABL1 = 0 | AKT1 = 0 | ALK 0 | ARAF 0 | AURKA 0 | AURKB 0 | AURKC 0 | BLK 0 | BMX 0 | BRAF 0 | BRAF_V600E 0 | BTK 0 | CAMK2A 0 | CAMK2G 0 | CDK10 = 0 | CDK2 = 0 | CDK3 = 0 | CDK4 = 0 | CDK5 = 0 | CDK6 = 0

O=C1Nc2ccc(CN3C(=O)CSC3=O)cc2/C1=C/c1cc(CN2CCOCC2)c[nH]1 (10 µM)
inactive: ABL1 = 0 | AKT1 = 0 | ALK 0 | ARAF 0 | AURKA 0 | AURKB 0 | AURKC 0 | BLK 0 | BMX 0 | BRAF 0 | BRAF_V600E 0 | BTK 0 | CAMK2A 0 | CAMK2G 0 | CDK10 = 0 | CDK2 = 0 | CDK3 = 0 | CDK4 = 0 | CDK5 = 0 | CDK6 = 0

COCCOCCc1c(C)c2cc(OC)c(O)c(C=O)c2oc1=O (10 µM)
inactive: ABL1 = 0 | AKT1 = 0 | ALK 0 | ARAF 0 | AURKA 0 | AURKB 0 | AURKC 0 | BLK 0 | BMX 0 | BRAF 0 | BRAF_V600E 0 | BTK 0 | CAMK2A 0 | CAMK2G 0 | CDK10 = 0 | CDK2 = 0 | CDK3 = 0 | CDK4 = 0 | CDK5 = 0 | CDK6 = 0
